Experimental data as given in PubChem BioAssay AID493014 (National Center for Advancing Translational Sciences (NCATS), 2011).
The other results are listed elsewhere or left out. Shown are side measurements of this screen, not its main read-out; they come without a call. The list favours compounds with an active or inconclusive main result. Potencies come from curve fits of mixed quality, noted in brackets.

Experiment: qHTS Assay to Find Inhibitors of Chronic Active B-Cell Receptor Signaling
Details: ABC-DLBCL IkBa-CBG/CBR reporter, luminescence ratio (green luciferase fused to IkBa over red control in TMD8 lymphoma cells), 4 h
In short: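 Compounds up to 46 uM were incubated four hours with TMD8 cells whose green CBG68 luciferase is fused to IkappaBalpha; red CBR luminescence normalised the signal, and concentration-effect curves were fitted to fusion, red and ratio data.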

[1] = measured here: CBR red luminescence, cell number
[2] = measured here: IkBa-CBG green luminescence

Compound | AC50 [1] | AC50 [2]
COc1ccccc1N(C)S(=O)(=O)c1ccc(C(=O)OCC(=O)NCc2cccs2)cc1 | 6.31 µM [rising, partial curve, poor fit] | 
O=C(NNC1=NCCCCC1)Nc1cccc(Cl)c1 | 31.6 µM [rising, single point] | 
NC(N)=NS(=O)(=O)c1ccc(NC(=S)NC(=O)c2ccc3c(c2)OCO3)cc1 | 1 µM [falling, full curve, poor fit] | 
N#Cc1cccc(NC(=O)c2nc(-c3ccccc3)n(-c3ccccc3)n2)c1 | 3.55 µM [rising, partial curve] | 
Cc1cc(-c2nnco2)c(C)n1-c1ccc(F)cc1 | 6.31 µM [falling, single point] | 
O=[N+]([O-])c1ccc(/C=C/C2=NN(c3ccccc3)C(c3ccco3)C2)o1 (stereo not drawn) | 3.16 µM [rising, full curve, poor fit] | 
O=C(Nc1ccccc1)OCCCCCOC(=O)Nc1ccccc1 | 12.6 µM [rising, partial curve, poor fit] | 
O=C(CC(=O)c1ccccc1)Nc1ccc(Cl)cc1 | 11.2 µM [falling, single point] | 
Cc1cc(C)c(S(=O)(=O)c2cccc(Br)c2C)c(Cl)n1 | 10 µM [rising, partial curve, poor fit] | 
COc1cccc(N/C(SCc2cccc([N+](=O)[O-])c2)=C(/C#N)C(N)=O)c1 | 10 µM [falling, partial curve, poor fit] | 
Cc1nnc2c(NCCc3ccccc3)nc3ccccc3n12 | 25.1 µM [rising, single point] | 
CCC(NC(=O)NNC(N)=S)(C(F)(F)F)C(F)(F)F | 11.2 µM [falling, partial curve] | 35.5 µM [falling, single point]
CCSc1nc2c(cnn2-c2ccccc2)c(=O)n1N | 14.1 µM [falling, single point] | 
CCN1C(=O)/C(=C\N(C(C)=O)c2ccccc2)OC1=S | 7.31 µM [falling, partial curve] | 
COc1ccc(/C=N/N=C(\N)c2nonc2N)cc1OC | 15.8 µM [falling, partial curve] | 
Cc1ccc(S(=O)(=O)N2CCC(CN3C(=O)c4cccc5cccc(c45)C3=O)CC2)cc1 | 5.62 µM [falling, single point] | 
CCn1c(SCC(=O)Nc2cc(C)on2)nnc1-c1c[nH]c2ccccc12 | 11.2 µM [falling, partial curve, poor fit] | 
CCN(CC(=O)Nc1ccc(NC(C)=O)cc1)C(=O)CSc1ncnc2sc(C)c(C)c12 | 29.1 µM [rising, partial curve, poor fit] | 
Cc1ccc(-c2noc(CN(C(=O)c3cccs3)C(C)C)n2)cc1 | 1.84 µM [rising, full curve] | 
Cc1cc(NC(=O)c2ccc(S(=O)(=O)N(C)C)cc2)no1 | 8.2 µM [falling, partial curve, poor fit] | 
COc1ccc(OCCCCOc2ccccc2Cl)cc1 | 10 µM [rising, partial curve] | 

Another view of some results above:
Compound,AC50 [1],AC50 [2]
O=C(CC(=O)c1ccccc1)Nc1ccc(Cl)cc1,"11.2 µM [falling, single point]",
COc1cccc(N/C(SCc2cccc([N+](=O)[O-])c2)=C(/C#N)C(N)=O)c1,"10 µM [falling, partial curve, poor fit]",
COc1ccc(OCCCCOc2ccccc2Cl)cc1,"10 µM [rising, partial curve]",

More results.

Compound | AC50 [1] | AC50 [2]
NS(=O)(=O)c1cc(C(=O)N2CCc3ccccc32)c(Cl)cc1Cl | 9.2 µM [rising, partial curve, poor fit] | 
Cc1ccsc1/C=N/n1c(=S)[nH]nc(C)c1=O | 25.9 µM [rising, single point] | 
NC(=S)N/N=C/c1ccc(OC(=O)c2cccnc2)cc1 | 25.1 µM [falling, single point] | 
CC12CCC(=O)N1C(C(=O)Nc1nc3ccc(F)cc3s1)CS2 (stereo not drawn) | 29.1 µM [rising, single point] | 
O=C(CSc1ncnc2sccc12)Nc1ccccc1 | 31.6 µM [falling, single point] | 
Cc1nc(SCC(=O)NC2CCS(=O)(=O)C2)c2c3c(sc2n1)CCCC3 (stereo not drawn) | 23.1 µM [rising, partial curve, poor fit] | 
O=C(NC(=S)NC1CCSC1=O)c1cccs1 (stereo not drawn) |  | 32.6 µM [falling, partial curve, poor fit]
Cc1ccc(Cn2c(N/N=C/c3ccncc3)nc3c2c(=O)n(C)c(=O)n3C)cc1 | 3.16 µM [rising, single point] | 
CCc1ccc2c(CC(=O)Nc3cccc(S(=O)(=O)N4CCOCC4)c3)coc2c1 | 29.1 µM [falling, single point] | 
Fc1cccc(NC(=S)N2CCCC2)c1 | 25.9 µM [rising, single point] | 
CCCCN(C)S(=O)(=O)c1c(C)[nH]c(=O)[nH]c1=O | 1.64 µM [rising, full curve, poor fit] | 
O=C(N/N=C/c1cccc([N+](=O)[O-])c1)c1ccc2nc[nH]c2c1 | 29.1 µM [falling, single point] | 
CC(=O)NC1(C(F)(F)F)NC(=O)N(c2ccc(F)cc2)C1=O (stereo not drawn) | 3.55 µM [rising, single point] | 
CCOC(=O)N1CCC(Nc2nc3ccccc3n3nnnc23)CC1 | 1.78 µM [falling, full curve] | 
COc1ccccc1C(=O)NC(=S)Nc1ccc(Cc2ccncc2)cc1 | 12.6 µM [falling, single point] | 
Cc1ccc(NC(=O)c2ccccc2SCC(=O)N2CCCC2)cc1S(=O)(=O)N(C)C | 0.794 µM [rising, full curve, poor fit] | 
Cc1nc(SCC(=O)c2ccc(F)cc2)n[nH]1 | 35.5 µM [rising, single point] | 
O=C(/C=C/c1ccc(-c2ccccc2[N+](=O)[O-])o1)c1ccc(F)cc1 | 35.5 µM [falling, single point] | 
N#CCCN(Cc1cccnc1)C(=S)NC(=O)c1ccco1 | 10 µM [falling, partial curve, poor fit] | 
S=c1nc[nH]c2c1[nH]c1ccc(Cl)cc12 | 3.55 µM [rising, single point] | 
CCc1ccc(C(=O)NNC(=S)Nc2ccc(S(N)(=O)=O)cc2)s1 | 11.2 µM [falling, partial curve] | 
